Assay results published in PubChem BioAssay AID445 (National Center for Advancing Translational Sciences (NCATS), 2006).
The other results are listed elsewhere or left out. Shown are side measurements of this screen, not its main read-out; they come without a call. Most of these compounds were active or inconclusive in the main read-out, so they are no random draw. Potencies come from curve fits of mixed quality, noted in brackets.

Experiment: IkB Signaling
Conditions: ABC-DLBCL IkBa-CBG/CBR dual luciferase ratio (green luciferase fused to IkBa over red control in OCI-Ly3 lymphoma cells), 4 h
How it was run: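 In this assay, an IκBα–CBG68 fusion accumulates when IKK-driven degradation is blocked; native CBR normalizes for cell number. OCI-Ly3 cells were treated 4 h with compound and doxycycline, then green and red light read after Chroma-Glo addition.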

[1] = measured here: control luc red channel unless noted

COc1ccc(OC)c(CNC(=O)c2cc3c(Cl)nc4ccccc4c3s2)c1
AC50 [1]: 12.6 µM [falling, partial curve]

CCCNC(=O)Cn1nc(-c2ccc(OC)cc2)c2cnc3ccc(F)cc3c21
AC50 [1]: 0.0158 µM [rising, full curve, poor fit]

C=CCc1c(C)nc(SCc2nc3ccccc3c(=O)[nH]2)[nH]c1=O
AC50 [1]: 20 µM [falling, partial curve]

COc1cccc(-c2cc3nc4c(c(N5CCC6(CC5)OCCO6)n3n2)CCCC4)c1
AC50 [1]: 5.01 µM [falling, full curve]

O=C(NCc1ccco1)c1ccc2c(c1)N(Cc1ccccc1)C(=O)c1ccccc1S2
AC50 [1]: 20 µM [falling, single point]

CCC1CCCCN1C(=O)c1c[nH]c2ccc(S(=O)(=O)Nc3cccc(OC)c3)cc2c1=O (stereo not drawn)
AC50 [1]: 1.26 µM [falling, single point]

Cc1cc(C)c(S(=O)(=O)NCCc2sc3nc(-c4ccc(F)cc4)nn3c2C)c(C)c1
AC50 [1]: 25.1 µM [falling, partial curve]

CCOc1ccc(NC(=O)CCc2c(C)nc3cc(-c4ccccc4OC)nn3c2C)cc1
AC50 [1]: 0.631 µM [falling, full curve]

COC(=O)c1ccc(CSc2c(C(C)C)cnc3c2c(=O)n(C)c(=O)n3C)cc1
AC50 [1]: 20 µM [falling, partial curve]

Cc1ccc(N(C)S(=O)(=O)c2ccc3[nH]c(=O)ccc3c2)cc1
AC50 [1]: 3.16 µM [falling, partial curve]

CSc1nc(N)c(C#N)c(-c2ccc(Cl)cc2)c1C#N
AC50 [1]: 39.8 µM [falling, single point]

Cc1ccc(NC(=O)c2sc3ncnc(N(C)C4CCCCC4)c3c2C)c(C)c1
AC50 [1]: 25.1 µM [falling, single point]

O=C(CC1N=C2c3ccccc3N=C(SCc3cccc(Cl)c3)N2C1=O)NC1CCCCC1 (stereo not drawn)
AC50 [1]: 25.1 µM [falling, single point]

COc1ccc(NC(=O)CSc2nnc(-c3nnn(-c4ccc(F)cc4)c3C)o2)cc1
AC50 [1]: 25.1 µM [falling, partial curve]

Cn1c(=NC(=O)c2ccc(F)cc2)sc2cc(Br)ccc21
AC50 [1]: 39.8 µM [falling, partial curve, poor fit]

Cc1ccc(Cl)cc1-n1c(=O)cc(N2CCN(c3ccccc3)CC2)[nH]c1=O
AC50 [1]: 39.8 µM [falling, single point]

Cc1cc2n(n1)CCCN2C(=O)Nc1ccccc1F
AC50 [1]: 2 µM [rising, partial curve]

COc1cccc(C(=O)N2CCC(c3nc4ccccc4s3)CC2)c1
AC50 [1]: 20 µM [falling, single point]

COCCNc1cc(N2CCN(C3CCCCC3)CC2)c2noc3c2c1C(=O)c1ccccc1-3
AC50 [1]: 39.8 µM [falling, partial curve]

CCOc1ccccc1NC(=O)c1ccc2c(c1)CCCN2S(C)(=O)=O
AC50 [1]: 31.6 µM [falling, single point]

Cc1ccc(C(=O)Nc2nnc(SCc3cc(=O)c4c(C)ccc(C)c4[nH]3)s2)cc1
AC50 [1]: 0.631 µM [falling, full curve, poor fit]

O=C(C1COc2ccccc2O1)N(Cc1cccnc1)c1nc2c(F)cc(F)cc2s1 (stereo not drawn)
AC50 [1]: 25.1 µM [falling, single point]

Cc1ccc(Cl)cc1N1CCN(C(=O)c2c(C)oc3ncnc(N4CCOCC4)c23)CC1
AC50 [1]: 31.6 µM [falling, partial curve]

COC(=O)c1cccc(Nc2c(-c3cc(Br)ccc3O)nc3nc[nH]n23)c1
AC50 [1]: 2.51 µM [falling, partial curve]

CCOc1ccccc1NC(=O)c1c(NCc2ccc(OC)c(OC)c2OC)sc2c1CCC(C)C2 (stereo not drawn)
AC50 [1]: 39.8 µM [falling, partial curve, poor fit]

O=C(Nc1nccs1)c1ccc(COc2ccccc2Br)o1
AC50 [1]: 10 µM [falling, partial curve]

Cc1ccc(Cl)cc1NC(=O)c1cccc(NC(=O)N2CCSc3ncccc32)c1
AC50 [1]: 15.8 µM [falling, partial curve]

COCCN1C(=O)c2[nH]nc(-c3c(C)cc(C)cc3O)c2C1c1cccc(O)c1 (stereo not drawn)
AC50 [1]: 31.6 µM [falling, single point]

COc1ccc(S(=O)(=O)N(CCc2ccccc2)CC(=O)NCc2ccccc2)cc1OC
AC50 [1]: 39.8 µM [falling, single point]

Cc1cccn2c(=O)c(C(=O)NCCc3ccc(Cl)cc3)cnc12
AC50 [1]: 31.6 µM [falling, single point]

Cc1cc(C)nc(N(C#N)S(=O)(=O)c2ccccc2)n1
AC50 [1]: 15.8 µM [falling, partial curve]

Cc1ccc(-c2nnc(Nc3ccc(Br)cc3)c3ccccc23)cc1S(=O)(=O)NCc1nc2ccccc2[nH]1
AC50 [1]: 3.98 µM [falling, full curve]

COc1ccc(-n2ncc3c(N4CCCc5ccccc54)ncnc32)cc1
AC50 [1]: 25.1 µM [falling, partial curve]

COc1cccc(C(=O)Nc2ccccc2-c2nc(-c3ccc(C)cc3)no2)c1
AC50 [1]: 0.0398 µM [rising, full curve, poor fit]

Cc1ccc(N2C(=O)c3n[nH]c(C)c3C2c2ccc(C(C)C)cc2)cc1 (stereo not drawn)
AC50 [1]: 20 µM [falling, single point]

COc1ccccc1CN1CCN(C(CC(C)C)c2nnnn2Cc2cccs2)CC1 (stereo not drawn)
AC50 [1]: 25.1 µM [falling, single point]

O=C1/C(=N/n2cnnc2)c2ccccc2N1Cc1ccccc1
AC50 (measured here: IkB-luc green channel): 31.6 µM [rising, single point]
AC50 (measured here: control luc red channel): 20 µM [rising, partial curve]

CC(NC(=O)Nc1ccccc1O)(C(F)(F)F)C(F)(F)F
AC50 [1]: 7.94 µM [falling, partial curve]

CC(=O)c1cccc(NC(=O)c2sc3nc4c(cc3c2N)CCCC4)c1
AC50 [1]: 25.1 µM [falling, single point]

COc1cc(OC)c(NC(=O)NCc2ccc3c(c2)CCN3C(C)=O)cc1Cl
AC50 [1]: 10 µM [falling, partial curve]

Cc1ccc(CNC(=O)C(=O)NCC(c2cccs2)S(=O)(=O)c2cccs2)cc1 (stereo not drawn)
AC50 [1]: 12.6 µM [falling, partial curve]

CC(C)(C)OC(=O)N1CCC(c2c(C(=O)Nc3ccc4c(c3)OCO4)cnn2-c2ccc(F)cc2F)CC1
AC50 [1]: 12.6 µM [falling, partial curve]

CCOC(=O)c1[nH]c2ccccc2c1NC(=O)c1ccc(Br)o1
AC50 [1]: 12.6 µM [falling, partial curve]

Cc1cc(-c2ccc(C)c(S(=O)(=O)N(Cc3cccs3)C(C)C)c2)on1
AC50 [1]: 20 µM [falling, single point]

O=C(c1cccc(C(=O)N2CCN(c3ccc(F)cc3)CC2)c1)N1CCN(c2ccc(F)cc2)CC1
AC50 [1]: 7.94 µM [falling, partial curve]

CCSc1nc2c([nH]c3ccccc32)c(=O)n1-c1ccc(OC)cc1
AC50 [1]: 1 µM [rising, full curve, poor fit]

Cc1cccc(NC(=O)CCNS(=O)(=O)c2ccc3c(c2)CCCC(=O)N3)c1C
AC50 [1]: 3.16 µM [falling, single point]

CCOC(=O)c1[nH]c2c(c1Cc1ccccc1)C(=O)CC(c1ccc(OC)cc1)C2 (stereo not drawn)
AC50 [1]: 7.94 µM [falling, full curve]

CCOC(=O)c1ccc(NC(=O)c2cnc(N3CCCC3)nc2C)cc1
AC50 [1]: 39.8 µM [falling, single point]

CCc1ccc(NC(=O)CSC2=Nc3ccccc3C3=NC(CC(=O)NCc4ccc5c(c4)OCO5)C(=O)N23)cc1 (stereo not drawn)
AC50 [1]: 25.1 µM [falling, single point]

c1coc(-c2nc3ccccn3c2Nc2ccc3c(c2)OCCO3)c1
AC50 [1]: 0.398 µM [falling, partial curve]

Cc1ccc(Cn2c(SCc3ccc(C(=O)NCCc4ccccc4)cc3)nc3ccncc32)cc1
AC50 [1]: 5.01 µM [falling, full curve, poor fit]

COc1ccc(-c2cn3c(n2)sc2cc(C(=O)Nc4ccccc4F)ccc23)cc1
AC50 [1]: 5.01 µM [falling, partial curve]

Cc1cc(N2CCOCC2)nc(SCC(=O)c2ccccc2)n1
AC50 [1]: 12.6 µM [falling, partial curve]

CCCCNC(=O)C1CCCN(c2nnc(C)c3c(C)n(-c4ccc(Cl)cc4)nc23)C1 (stereo not drawn)
AC50 [1]: 25.1 µM [falling, single point]

CN1CCc2c(sc3c2C(=O)NC(c2ccc(-c4cccc(Cl)c4)o2)N3)C1 (stereo not drawn)
AC50 [1]: 12.6 µM [falling, partial curve]

N#CC(=C(/N)Sc1ccccc1N)/C(C#N)=C(/N)Sc1ccccc1N
AC50 [1]: 0.398 µM [falling, full curve]

CC(C)c1ccc(S(=O)(=O)Nc2ccc(O)c(Sc3nc4ccccc4s3)c2)cc1
AC50 [1]: 20 µM [falling, single point]

CSc1cccc(NC(=O)C2CCN(S(=O)(=O)c3ccc4[nH]c(=O)ccc4c3)CC2)c1
AC50 [1]: 5.01 µM [falling, full curve]

CCOC(=O)C1(C)C=C(Nc2ccc(C)cc2)C(=O)N1c1ccccc1 (stereo not drawn)
AC50 [1]: 0.2 µM [falling, full curve, poor fit]

CCCCC(CC)CNC(=O)c1ccc2c(c1)OCO2 (stereo not drawn)
AC50 [1]: 15.8 µM [falling, partial curve]

O=C(c1ccncc1)N1CCC[C@@]2(CCN(c3cccc(-c4ccccc4)c3)C2)C1
AC50 [1]: 3.16 µM [falling, partial curve]
